Values from PubChem BioAssay AID1259424 (University of Nebraska Medical Center, 2018).
In all, the deposit lists about 14,000 reagents; this is a part drawn at random. 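Higher correlation or smaller distance means closer resemblance to KSR1 loss; control wells, including KSR1 knockdowns, recur on many plates.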 Not all columns of the deposit are shown. Not stated in the record: the time to read-out.

Screen: 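Find knockdowns that reproduce the expression shifts seen after KSR1 loss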 (primary screen)
Cells: human HCT116 colon cancer cells
Knock-down reagent: siRNA pool against human genes, 50 nM
Measurement: 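Six signature mRNAs by branched-DNA multiplex assay, scaled to two housekeeping genes and non-targeting median, log2; matched to mean KSR1 knockdown profile by Pearson correlation and euclidean distance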
Scale: mean correlation with KSR1 profile: higher = expression change more like KSR1 knockdown; mean distance from KSR1 profile: higher = expression change less like KSR1 knockdown

With MRTFB (myocardin related transcription factor B) [SID363998574], how do the results read?
mean correlation with KSR1 profile: 0.291; mean distance from KSR1 profile: 1.74

Which result is listed for GSTA1 (glutathione S-transferase alpha 1) [SID364004670]?
mean correlation with KSR1 profile: -0.188; mean distance from KSR1 profile: 3.71

Which result is listed for CD69 (CD69 molecule) [SID363993000]?
mean correlation with KSR1 profile: 0.312; mean distance from KSR1 profile: 1.47

For EIF2S1 (eukaryotic translation initiation factor 2 subunit alpha) [SID363995104], what does the deposit list?
mean correlation with KSR1 profile: -0.234; mean distance from KSR1 profile: 5.82

What did the screen give for PIK3R2 (phosphoinositide-3-kinase regulatory subunit 2) [SID363995966]?
mean correlation with KSR1 profile: -0.0887; mean distance from KSR1 profile: 3.4

How did the screen score MAF (MAF bZIP transcription factor) [SID363996271]?
mean correlation with KSR1 profile: -0.739; mean distance from KSR1 profile: 2.25

For DCUN1D2 (defective in cullin neddylation 1 domain containing 2) [SID364000856], how do the results read?
mean correlation with KSR1 profile: -0.412; mean distance from KSR1 profile: 2.55

For DPF1 (double PHD fingers 1) [SID363995615], what was measured?
mean correlation with KSR1 profile: -0.497; mean distance from KSR1 profile: 1.76

For TCP11 (t-complex 11) [SID364001175], what does the deposit list?
mean correlation with KSR1 profile: 0.119; mean distance from KSR1 profile: 2.2

For L1TD1 (LINE1 type transposase domain containing 1) [SID364001385], how do the results read?
mean correlation with KSR1 profile: 0.0607; mean distance from KSR1 profile: 2.27

What is on record for DNAJC30 (DnaJ heat shock protein family (Hsp40) member C30) [SID364003903]?
mean correlation with KSR1 profile: 0.364; mean distance from KSR1 profile: 1.84

For HTR1E (5-hydroxytryptamine receptor 1E) [SID363992152], what does the deposit list?
mean correlation with KSR1 profile: 0.305; mean distance from KSR1 profile: 1.7

What is on record for CRYBB1 (crystallin beta B1) [SID363993100]?
mean correlation with KSR1 profile: -0.161; mean distance from KSR1 profile: 3.55

With PPCDC (phosphopantothenoylcysteine decarboxylase) [SID364002203], what does the deposit list?
mean correlation with KSR1 profile: -0.557; mean distance from KSR1 profile: 2.65

For RPL38 (ribosomal protein L38) [SID363992282], what does the deposit list?
mean correlation with KSR1 profile: 0.193; mean distance from KSR1 profile: 1.23

With POU5F1 (POU class 5 homeobox 1) [SID363993861], what does the deposit list?
mean correlation with KSR1 profile: -0.402; mean distance from KSR1 profile: 2.15

Which result is listed for GYPC (glycophorin C (Gerbich blood group)) [SID363993308]?
mean correlation with KSR1 profile: -0.335; mean distance from KSR1 profile: 4.35

3 entries from above, ordered by “mean distance from KSR1 profile”, ascending.
DPF1 (double PHD fingers 1) [SID363995615] | mean correlation with KSR1 profile: -0.497; mean distance from KSR1 profile: 1.76
MAF (MAF bZIP transcription factor) [SID363996271] | mean correlation with KSR1 profile: -0.739; mean distance from KSR1 profile: 2.25
DCUN1D2 (defective in cullin neddylation 1 domain containing 2) [SID364000856] | mean correlation with KSR1 profile: -0.412; mean distance from KSR1 profile: 2.55

Next reagents follow.
What is on record for PPP4R2 (protein phosphatase 4 regulatory subunit 2) [SID364004855]?
mean correlation with KSR1 profile: 0.413; mean distance from KSR1 profile: 1.31

Which result is listed for STUB1 (STIP1 homology and U-box containing protein 1) [SID363996735]?
mean correlation with KSR1 profile: 0.205; mean distance from KSR1 profile: 1.27

What did the screen give for TRPM1 [SID363993598]?
mean correlation with KSR1 profile: 0.218; mean distance from KSR1 profile: 1.89

What did the screen give for MCM2 (minichromosome maintenance complex component 2) [SID363995500]?
mean correlation with KSR1 profile: 0.677; mean distance from KSR1 profile: 1.05

Which result is listed for IDH3A (isocitrate dehydrogenase (NAD(+)) 3 catalytic subunit alpha) [SID363996430]?
mean correlation with KSR1 profile: 0.593; mean distance from KSR1 profile: 1.59

Which result is listed for SCAF11 (SR-related CTD associated factor 11) [SID363995678]?
mean correlation with KSR1 profile: -0.43; mean distance from KSR1 profile: 1.55

For XIAP (X-linked inhibitor of apoptosis) [SID363992458], how do the results read?
mean correlation with KSR1 profile: 0.368; mean distance from KSR1 profile: 1.04

For ACSL5 (acyl-CoA synthetase long chain family member 5) [SID363999969], what was measured?
mean correlation with KSR1 profile: 0.0969; mean distance from KSR1 profile: 1.75

How did the screen score PRDM6 (PR/SET domain 6) [SID364005219]?
mean correlation with KSR1 profile: 0.134; mean distance from KSR1 profile: 1.6

For VPS28 (VPS28 subunit of ESCRT-I) [SID363999950], how do the results read?
mean correlation with KSR1 profile: -0.616; mean distance from KSR1 profile: 2.66

For PMCH (pro-melanin concentrating hormone) [SID363993840], what was measured?
mean correlation with KSR1 profile: 0.209; mean distance from KSR1 profile: 2.21

Which result is listed for SMARCA5 (SNF2 related chromatin remodeling ATPase 5) [SID363994681]?
mean correlation with KSR1 profile: 0.11; mean distance from KSR1 profile: 2.13

With CDCA7L (cell division cycle associated 7 like) [SID364001203], what does the deposit list?
mean correlation with KSR1 profile: -0.682; mean distance from KSR1 profile: 2.59

For SAP18 (Sin3A associated protein 18) [SID363996743], how do the results read?
mean correlation with KSR1 profile: -0.182; mean distance from KSR1 profile: 2.26

What did the screen give for E4F1 (E4F transcription factor 1) [SID363995406]?
mean correlation with KSR1 profile: 0.00696; mean distance from KSR1 profile: 1.83

With RNF4 (ring finger protein 4) [SID363994090], what does the deposit list?
mean correlation with KSR1 profile: -0.4; mean distance from KSR1 profile: 1.73

What did the screen give for UBQLN1 (ubiquilin 1) [SID363998517]?
mean correlation with KSR1 profile: 0.675; mean distance from KSR1 profile: 0.876

With EPS8L1 (EPS8 signaling adaptor L1) [SID364000477], what does the deposit list?
mean correlation with KSR1 profile: 0.533; mean distance from KSR1 profile: 2.21

For RAB31 (RAB31, member RAS oncogene family) [SID363997632], what does the deposit list?
mean correlation with KSR1 profile: -0.0263; mean distance from KSR1 profile: 2.55
